Where a SMILES comes first, the peptide text is derived from it. Bridges are numbered along the chain shown (N, C = ends). [ ]: non-standard residue; d: D form. Cha = N[C@@H](CC1CCCCC1)C(=O)O
Tested on: cJun
Assay: CD spectra and thermal denaturation of peptide-cJun mixtures (specificity)
Format: binding
Conditions: for Peptide-cJun Ɵ222/208 (20ºC): CD ratio, mixture with cJun, 20 °C; for Peptide-cJun Fraction helical (ƒH): equimolar mixture with cJun, CD 222 nm, 20°C
Experimental: To establish if the truncated and constrained peptides retained the interaction specificity of the JunWCANDI parent peptide, peptides capable of interacting with cFos were also incubated at equimolar concentrations with cJun and monitored via CD spectra. […] In addition, a dimer exchange experiment was performed for the most helical peptide 24. Spectra for a cJun-peptide solution and a cFos solution should, upon mixing, generate an averaged spectrum if there was no dimer exchange. […] Spectra for both mixtures can be superimposed (Figure S4).
Supplementary file pone.0059415.s002.tiff: Figure S2 Raw thermal melting data for homo and heterodimeric complexes with cJun for constrained peptides 1 , 2 , 8 , 9, 10 , 11, 12, 17, 20, 22, and 24 . […] (TIFF) Click here for additional data file.
Supplementary file pone.0059415.s003.tiff: Figure S3 CD spectra as MRE both in isolation and as a mixture with cJun. From these raw data it is also clear that no interaction is occurring between constrained peptides and cJun. Rather, specta appear as averages of their homodimeric components (i.e. superimpose with the homomeric averages). We observe no heteromeric helical signal (red) that exceeds the average (black dotted line) of cJun (black) and the constrained peptide (blue), that would be anticipated for a non-interacting pair. (TIFF) Click here for additional data file.
Supplementary file pone.0059415.s005.doc: Table S1 Helical Data obtained via Circular Dichroism. Shown are A) homo and B) heteromeric samples. […] A ratio higher than 1 is generally indicated evidence that a coiled coil has formed, while a ratio of less than 0.9 is taken to indicate the presence of isolated helices. Shown in column two are the calculated fractional helicities taken from the Molar Residue Ellipticity at […]. Fraction helicity (ƒH) can be calculated as ƒH = (θ222−θc)/(θ222∞−θc) where θ222∞ = (−44000+250*T)*(1−k/Nr) and θc = 2220–(53*T). In these equations the wavelength dependent constant k = 2.4 (at 222 nm), Nr = the number of residues, and T = 20 degrees Celsius (293 K). The 222/208 ratio is used to provide evidence on whether the helices are monomeric or are adopting a quaternary structure. Measured helicity for the original JunWCANDI peptide and for the template on which the hydrocarbon constraints have been introduced. […] The N- and C-capping motifs have been removed for the constrained since they are considered to be largely redundant upon their introduction. (DOC) Click here for additional data file.

Row | SMILES | Peptide-cJun Ɵ222/208 (20ºC) | Peptide-cJun Fraction helical (ƒH)
1 | CC[C@H](C)[C@H](NC(=O)[C@H](Cc1c[nH]cn1)NC(=O)[C@@H]1CC(=O)NCCCC[C@H](NC(=O)[C@H](C)NC(=O)[C@H](CCCCN)NC(=O)[C@H](CO)NC(=O)[C@H](CCCNC(=N)N)NC(=O)[C@H](CC(C)C)NC(=O)[C@@H]2CC(=O)NCCCC[C@H](NC(=O)[C@H](CCCCN)NC(=O)[C@H](CC3CCCCC3)NC(C)=O)C(=O)N[C@@H](CCC(=O)O)C(=O)N[C@@H]([C@@H](C)CC)C(=O)N[C@@H](Cc3ccc(O)cc3)C(=O)N2)C(=O)N[C@@H](CCSC)C(=O)N[C@@H](CC(C)C)C(=O)N[C@@H](CCCNC(=N)N)C(=O)N1)C(=O)N[C@@H](C)C(=O)N[C@@H](CCC(N)=O)C(=O)N[C@@H](CC1CCCCC1)C(N)=O [compound 20] (Ac-[Cha]KKEIYDLRSKAKMLRDHIAQ[Cha]-NH2; lactam 3-7, 13-17) | 0.71 | 0.26
2 | CC[C@H](C)[C@@H]1NC(=O)[C@H](Cc2c[nH]cn2)NC(=O)[C@@H](NC(=O)[C@H](CCCNC(=N)N)NC(=O)[C@H](CC(C)C)NC(=O)[C@@H]2CC(=O)NCCCC[C@H](NC(=O)[C@H](CCCNC(=N)N)NC(=O)[C@H](CC(C)C)NC(=O)[C@@H]3CC(=O)NCCCC[C@H](NC(=O)[C@H](CCCNC(=N)N)NC(=O)[C@H](CC4CCCCC4)NC(C)=O)C(=O)N[C@@H](CCC(=O)O)C(=O)N[C@@H]([C@@H](C)CC)C(=O)N[C@@H](Cc4ccc(O)cc4)C(=O)N3)C(=O)N[C@@H](CCCCN)C(=O)N[C@@H](C)C(=O)N[C@@H](CC(N)=O)C(=O)N2)CCCCNC(=O)C[C@@H](C(=O)N[C@@H](CC2CCCCC2)C(N)=O)NC(=O)[C@H](C)NC1=O [compound 24, Ac-cyclo-(3,7; 10,14; 17,21)-ChaR[KEIYD]LR[KKAND]LR[KHIAD]Cha-NH2] (Ac-[Cha]RKEIYDLRKKANDLRKHIAD[Cha]-NH2; lactam 3-7, 10-14, 17-21) | 0.81 | 0.30
3 | CC[C@H](C)[C@H](NC(=O)[C@H](Cc1c[nH]cn1)NC(=O)[C@@H]1CC(=O)NCCCC[C@H](NC(=O)[C@H](C)NC(=O)[C@H](CCCCN)NC(=O)[C@H](CO)NC(=O)[C@H](CCCNC(=N)N)NC(=O)[C@H](CC2CCCCC2)NC(=O)[C@@H]2CC(=O)NCCCC[C@H](NC(=O)[C@H](CCCCN)NC(=O)[C@H](CC(C)C)NC(C)=O)C(=O)N[C@@H](CCC(=O)O)C(=O)N[C@@H]([C@@H](C)CC)C(=O)N[C@@H](Cc3ccc(O)cc3)C(=O)N2)C(=O)N[C@@H](CCSC)C(=O)N[C@@H](CC(C)C)C(=O)N[C@@H](CCCNC(=N)N)C(=O)N1)C(=O)N[C@@H](C)C(=O)N[C@@H](CCC(N)=O)C(=O)N[C@@H](CC(C)C)C(N)=O [compound 17] (Ac-LKKEIYD[Cha]RSKAKMLRDHIAQL-NH2; lactam 3-7, 13-17) | 0.73 | 0.26
